Reference: PubChem BioAssay AID504804 (Drosophila RNAi Screening Center, 2011)
Test: 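dsRNAs that improve Kc cell survival under doxorubicin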 (primary screen). System: Drosophila Kc cells. Knock-down reagent: long dsRNA against Drosophila genes, 0.5 µg dsRNA per well. Duration: 96 h (48 h knock-down, then 48 h drug). Challenge: doxorubicin 5 µg/ml for 48 h, added 48 h after dsRNA. Read-out: 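Viability measured as cellular ATP by luminescence after 48 h knock-down then 48 h doxorubicin at 5 µg/ml; unnormalised plate counts for each replicate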. Direction: raw ATP luminescence: higher = more viable cells, protection from doxorubicin. Active means: 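z-score of 2 or more over plate mean in both duplicates, retained only when retests and separate dsRNAs confirm the protection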.
The deposit covers about 19,000 reagents; below is an unselected part of those with a known target gene and a result. Of all reagents, 47 (0.25%) were called active. 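Signals are raw, not normalised; exact z-scores behind calls not deposited; actives needed confirmation, so some wells reaching 2 SD are inactive.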 Reagent sequences are not shown.

| target gene | DRSC id | SD above plate mean | raw ATP luminescence, replicate 1 | raw ATP luminescence, replicate 2 | outcome |
| --- | --- | --- | --- | --- | --- |
| mip40 (Myb-interacting protein 40) | DRSC06541 | – | 59803 | 83480 | inactive |
| WRNexo (WRN exonuclease) | DRSC16278 | – | 39697 | 46717 | inactive |
| CG14304 | DRSC14783 | – | 47410 | 43030 | inactive |
| CG12126 | DRSC06103 | – | 57193 | 78307 | inactive |
| Spn47C (Serpin 47C) | DRSC07030 | – | 60880 | 42990 | inactive |
| C15 | DRSC13495 | – | 2.63e5 | 3.31e5 | inactive |
| C15 | DRSC14169 | – | 44000 | 43930 | inactive |
| CG12715 | DRSC19492 | – | 3.31e5 | 3.36e5 | inactive |
| Spx (Spliceosomal protein on the X) | DRSC18720 | – | 28770 | 28720 | inactive |
| CG9254 | DRSC01969 | – | 14560 | 94493 | inactive |
| imd (immune deficiency) | DRSC05928 | – | 56940 | 66257 | inactive |
| CG7394 | DRSC10835 | – | 55440 | 68610 | inactive |
| CSN1a (COP9 signalosome subunit 1a) | DRSC01951 | – | 46290 | 82523 | inactive |
| Cul5 (Cullin 5) | DRSC14723 | – | 61410 | 43950 | inactive |
| ssp7 (short spindle 7) | DRSC18878 | – | 1.86e5 | 2.71e5 | inactive |
| uri (unconventional prefoldin RPB5 interactor) | DRSC04111 | – | 61053 | 71750 | inactive |
| CG13631 | DRSC14632 | – | 21887 | 21610 | inactive |
| CG4438 | DRSC02746 | – | 41170 | 84880 | inactive |
| CNBP (CCHC-type zinc finger nucleic acid binding protein) | DRSC04116 | – | 42717 | 48607 | inactive |
| CNBP (CCHC-type zinc finger nucleic acid binding protein) | DRSC04419 | – | 70743 | 69513 | inactive |
| Kpc1 (Kip1 ubiquitination-promoting complex subunit 1) | DRSC16107 | – | 44757 | 38297 | inactive |
| CG14200 | DRSC19555 | – | 98110 | 1.58e5 | inactive |
| CG14823 | DRSC10194 | – | 46090 | 43930 | inactive |
| Gtpx | DRSC08221 | – | 42640 | 44620 | inactive |
| ssp (sunspot) | DRSC10252 | – | 38663 | 36123 | inactive |
| CG42390 | DRSC15866 | – | 56687 | 28133 | inactive |
| Ir25a (Ionotropic receptor 25a) | DRSC00462 | – | 30243 | 33703 | inactive |
| Jon65Aiii (Jonah 65Aiii) | DRSC10649 | – | 38813 | 34373 | inactive |
| CG11961 | DRSC06099 | – | 60143 | 55037 | inactive |
| CG34124 | DRSC00849 | – | 2.99e5 | 3.03e5 | inactive |
| Reepl1 (Receptor accessory protein like 1) | DRSC19418 | – | 3.23e5 | 3.37e5 | inactive |
| Cog4 (Component of oligomeric golgi complex 4) | DRSC03057 | – | 84947 | 73300 | inactive |
| anchor | DRSC10861 | – | 23800 | 21977 | inactive |
| Targ1 (Terminal ADP-ribose protein glycohydrolase 1) | DRSC11616 | – | 60237 | 53340 | inactive |
| ftz (fushi tarazu) | DRSC12626 | – | 56347 | 53193 | inactive |
| MCPH1 (Microcephalin) | DRSC06309 | – | 44847 | 40927 | inactive |
| obe (obelus) | DRSC15736 | – | 34397 | 21570 | inactive |
| chn (charlatan) | DRSC06086 | 2 to 3 SD above plate mean | 1.02e5 | 1.00e5 | active |
| CG13251 | DRSC11699 | – | 61950 | 54527 | inactive |
| CG10508 | DRSC11612 | – | 19923 | 20457 | inactive |
| CG10508 | DRSC11613 | – | 56980 | 50693 | inactive |
| PH4alphaSG2 (prolyl-4-hydroxylase-alpha SG2) | DRSC15037 | – | 60890 | 48010 | inactive |
| CG11131 | DRSC11636 | – | 71133 | 75143 | inactive |
| CG13920 | DRSC08389 | – | 62493 | 62907 | inactive |
| alpha-Est9 (alpha-Esterase-9) | DRSC12621 | – | 62737 | 44943 | inactive |
| eIF4B (eukaryotic translation initiation factor 4B) | DRSC20983 | – | 2.81e5 | 2.92e5 | inactive |
| Fsn (F-box synaptic protein) | DRSC06875 | – | 67570 | 55890 | inactive |
| dsd (distracted) | DRSC13829 | – | 2.51e5 | 3.01e5 | inactive |
| CG33330 (retired record) | DRSC13053 | – | 46323 | 47004 | inactive |
| CG33330 (retired record) | DRSC15495 | – | 77643 | 43480 | inactive |
| Cdc50 (Cell division cycle 50) | DRSC20224 | – | 3.59e5 | 3.84e5 | inactive |
| CG10467 | DRSC09728 | – | 85033 | 78047 | inactive |
| CG4678 | DRSC19911 | – | 3.02e5 | 3.06e5 | inactive |
| CG4678 | DRSC19912 | – | 3.42e5 | 3.51e5 | inactive |
| Nubpl (NUBP iron-sulfur cluster assembly factor, mitochondrial) | DRSC03725 | – | 68630 | 67383 | inactive |
| mRpS25 (mitochondrial ribosomal protein S25) | DRSC19598 | – | 3.32e5 | 3.28e5 | inactive |
| CG4074 | DRSC11752 | – | 76133 | 85083 | inactive |

Taken from above:
CG4438 [DRSC02746], outcome = inactive
Value for C15 [DRSC14169] in “raw ATP luminescence, replicate 1”: 44000
Under “raw ATP luminescence, replicate 2”, CNBP (CCHC-type zinc finger nucleic acid binding protein) [DRSC04419] shows 69513
Result for CG33330 (retired record) [DRSC13053] in “outcome”: inactive
Cdc50 (Cell division cycle 50) [DRSC20224], raw ATP luminescence, replicate 1: 3.59e5
CG42390 [DRSC15866], outcome → inactive
